In PubChem BioAssay AID504834 (National Center for Advancing Translational Sciences (NCATS), 2011):
The campaign covered roughly 320,000 compounds. About 22,000 (6.9%) were called active. Inconclusive means that the source gave no clear call. Such entries were picked first, then a sample of the others. Calls follow the shape of the dose curve; as a rule, active = well fitted inhibition curve with a large enough effect; inconclusive = small, poorly fitted or top-dose-only effect, or another doubt; inactive = no such curve, though single readings can be large or run the other way. A potency beside an inconclusive call is a rough fit, not a confirmed value.

Test: Primary qHTS for delayed death inhibitors of the malarial parasite plastid, 96 hour incubation
Settings: P. falciparum luciferase reporter growth; series mostly up to 28.7 µM; activity change, negative = inhibition: at the top concentration
Procedure, shortened: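 Two parasite generations (96 h, 37 C, 5% CO2) of compound exposure in infected erythrocytes (0.05% parasitemia, 2% hematocrit). Luciferase-reporter P. falciparum; decreased luminescence indicates inhibited growth, aimed at apicoplast-acting delayed death.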
% is scaled to controls: 0 for no effect and ±100 for the full control effect; potency is read from the fitted curve at half-maximal effect.

| SMILES | Potency | activity change, negative = inhibition |
| --- | --- | --- |
| CCOc1cc(C(=O)OCC(=O)c2c[nH]c3ccccc23)ccc1OCC(=O)N1CCOCC1 | inconclusive: 6.57 µM [inhibitor, partial curve] |  |
| CCCCNC(=O)c1onc(CSc2nc3ccccc3[nH]2)c1C(=O)NCCCC | active: 3.29 µM |  |
| Cc1cccnc1NC(=O)CSc1nnc(CNC(=O)c2cccc([N+](=O)[O-])c2)n1C | inconclusive: 18.5 µM [inhibitor, single point] |  |
| Cc1ccc(-c2c[n+](Cc3ccc(Cl)cc3)c3n2CCC3)cc1 | active: 0.294 µM |  |
| Cc1ccc(Cn2ccc(NC(=O)c3noc4c3CCCC4)n2)cc1 | inconclusive: 16.5 µM [inhibitor, single point] |  |
| COCCCNC(=S)N1CCN(C(c2ccccc2)c2ccccc2)CC1 |  | inactive: -7.61% |
| CCOC(=O)/C(=C/c1ccccc1)NC(=O)c1ccco1 | inconclusive: 11.7 µM [inhibitor, single point] |  |
| CN(C)S(=O)(=O)c1cccc(NC(=O)c2ccc(-n3cncn3)c([N+](=O)[O-])c2)c1 | inconclusive: 6.57 µM [inhibitor, partial curve] |  |
| COc1ccccc1NC(=O)c1ccc(-n2cccn2)nc1 | inconclusive: 0.0657 µM [inhibitor, full curve, poor fit] |  |
| Cn1cc(Br)c(C(=O)n2cc(Br)cn2)n1 |  | inactive: -2.53% |
| Cc1nn(C(=O)c2cc3sccc3[nH]2)c(C)c1C |  | inactive: 29.4% |
| COC(=O)C1=C(C)N(Cc2ccccc2)C(=NCc2cc(OC)c(OC)c(OC)c2)N[C@H]1c1ccc(Br)cc1 |  | inactive: 29.1% |
| NS(=O)(=O)c1ccc(NC(=O)Nc2ccc(C(F)(F)F)cc2)cc1 | inconclusive: 18.5 µM [inhibitor, single point] |  |
| COc1ccc(Nc2nc3ccccc3nc2C)cc1 |  | inactive: 2.14% |
| COc1ccc(-c2nn(C)c(=O)c3ccccc23)cc1NC(=O)Cn1nc(-c2ccccc2)c2ccccc2c1=O | inconclusive: 1.65 µM [inhibitor, full curve] |  |
| CCN1CCN(C(c2cccnc2)c2c(NC(=O)c3ccco3)sc(C)c2C)CC1 (stereo not given) | active: 4.65 µM |  |
| O=C(CSc1nnc(Cc2cccs2)n1-c1ccc(Cl)cc1)NCc1ccc2c(c1)OCO2 | active: 7.38 µM |  |
| O=C(Nc1nnc(C2CC2)s1)c1ccncc1 |  | inactive: 35% |
| N#CCCCSc1nnnn1-c1cccc(Cl)c1 | inconclusive: 18.5 µM [inhibitor, single point] |  |
| C/C(=N\Nc1nc(N2CCCCC2)nc(N2CCOCC2)n1)c1ccccc1O |  | inactive: -1.84% |
| COc1ccc(C(CCNCc2ccc(OC(C)C)cc2)C(C)C)cc1 (stereo not given) | inconclusive: 3.7 µM [inhibitor, full curve, poor fit] |  |
| Cc1ccc(NC(=O)Cn2c(=O)n(CCCC(=O)NCc3ccco3)c(=O)c3ccccc32)cc1 | inconclusive: 0.0657 µM [inhibitor, partial curve, poor fit] |  |
| Cc1cc(S(=O)(=O)N2c3ccc(F)cc3CCC2C)ccc1-n1cnnn1 (stereo not given) |  | inactive: 29.1% |
| Cc1ccc(S(=O)(=O)N(C)Cc2cc3ccccc3[nH]c2=O)cc1 | active: 9.28 µM |  |

| SMILES | Potency | activity change, negative = inhibition |
| --- | --- | --- |
| O=C(NCc1ccc2c(c1)OCO2)c1cc(-c2ccccn2)nc2ccccc12 | inconclusive: 11.7 µM [inhibitor, single point] |  |
| CCc1ccccc1NC(=O)c1ccc(S(=O)(=O)N2CCCC2)cc1 |  | inactive: -11.6% |
| COc1ccc(NC(=O)c2ccccc2NC(=O)c2ccco2)cc1 | inconclusive: 9.28 µM [inhibitor, partial curve] |  |
| CC1=C(C#N)C(=O)N(C2CCS(=O)(=O)C2)C(=O)/C1=C\c1ccc(C)o1 (stereo not given) |  | inactive: 45.8% |
| COc1ccccc1C(=O)NC(=O)Nc1cccc(Cl)c1 | inconclusive: 2.94 µM [inhibitor, partial curve, poor fit] |  |
| Cc1cc(C(=O)N/N=C2\CC(=O)CC(C)(C)C2)c(C)n1-c1ccc(F)cc1 | inconclusive: 13.1 µM [inhibitor, single point] |  |
| C/C(=N/NC(=O)C(C)n1nc(C)c([N+](=O)[O-])c1C)c1ccc(OCC(N)=O)cc1 (stereo not given) | inconclusive: 13.1 µM [inhibitor, single point] |  |
| O=C(CSc1nnc(CNC(=O)C23CC4CC(CC(C4)C2)C3)n1-c1ccc(F)cc1)Nc1ccccc1 | inconclusive: 14.7 µM [inhibitor, partial curve, poor fit] |  |
| O=c1[nH]c(SCCOc2cccc3ccccc23)nc2ccccc12 | active: 2.08 µM |  |
| CCCCN1CCC(COC(=O)c2cc(Cl)c(N)c3c2OCCO3)CC1 |  | inactive: -2.75% |
| COc1ccc(NC(=O)CN(C)S(=O)(=O)c2ccc(Cl)cc2)cn1 | inconclusive: 18.5 µM [inhibitor, single point] |  |
| Cc1nn(C(=O)C2CC2)c(C)c1Sc1ccc(Cl)cc1 | inconclusive: 18.5 µM [inhibitor, single point] |  |
| CCc1ccccc1NC(=O)c1cnccn1 | inconclusive: 9.28 µM [inhibitor, partial curve, poor fit] |  |
| Cc1ccnc(NC(=O)c2ccc(Cl)c(NC(=O)C(C)Oc3ccccc3)c2)c1 (stereo not given) | inconclusive: 16.5 µM [inhibitor, single point] |  |
| CCOC(=O)n1c(=O)n(Cc2c(Cl)cccc2Cl)c2ccccc21 | inconclusive: 1.31 µM [inhibitor, partial curve] |  |
| COc1ccc(OC)c(NC(=O)COC(=O)c2ccc(S(=O)(=O)N3CCOCC3)cc2)c1 | inconclusive: 10.4 µM [inhibitor, single point] |  |
| CCCc1nnc(NC(=O)c2c(O)c3cccc4c3n(c2=O)CCC4)s1 | inconclusive: 18.5 µM [inhibitor, single point] |  |
| CCOC(=O)N/N=C\C=C\c1ccc2c(c1)OCO2 | inconclusive: 1.47 µM [inhibitor, full curve, poor fit] |  |
| N#Cc1ccccc1NCc1ccccc1 | inconclusive: 18.5 µM [inhibitor, single point] |  |
| COc1ccc2c(c1)OC[C@H]1[C@H]2N2C(=O)CN(Cc3ccc(Cl)cc3)C(=O)[C@@]2(C)[C@H]1c1ccccc1 | inconclusive: 1.47 µM [inhibitor, full curve] |  |
| Cc1cc(C(=O)COC(=O)c2cccn2C)c(C)n1Cc1ccco1 |  | inactive: 90.3% |
| O=C(Nc1ccc2c(c1)CCC2)C1CCN(c2c3c(nc4ncnn24)CCC3)CC1 |  | inactive: -8.58% |
| COc1cc(C(C(=O)Nc2c(C)cccc2C)N(C)C(=O)c2ccc(-n3cnnn3)cc2)ccc1O (stereo not given) |  | inactive: -9.12% |
| Cc1cc(C)c(C)c(S(=O)(=O)NNC(=O)c2cccc(S(=O)(=O)N3CCOCC3)c2)c1C | inconclusive: 1.04 µM [inhibitor, partial curve, poor fit] |  |

| SMILES | Potency | activity change, negative = inhibition |
| --- | --- | --- |
| CC(C)CC(=O)Nc1cccc(-c2nc3ncccc3o2)c1 | inconclusive: 7.38 µM [inhibitor, partial curve] |  |
| O=C(Cc1cccc2ccccc12)Nc1nnc(-c2cccc([N+](=O)[O-])c2)s1 |  | inactive: -37.3% |
| Cc1ccc(C(=O)OCC(=O)NC(=O)NCc2ccccc2)cc1C | inconclusive: 18.5 µM [inhibitor, single point] |  |
| CCN1CCN(C(=O)Cn2c(=O)sc3ccccc32)CC1 | inconclusive: 18.5 µM [inhibitor, single point] |  |
| C/C(CCc1ccc2c(c1)OCO2)=N\N=C(/N)SC1CC(=O)N(c2ccc(Cl)cc2)C1=O (stereo not given) | inconclusive: 13.1 µM [inhibitor, single point] |  |
| CCC1CCCCN1Cc1nc(Cc2ccccc2Cl)no1 (stereo not given) | inconclusive: 0.0738 µM [inhibitor, full curve, poor fit] |  |
| Cc1ccc(-n2c(CCC(=O)O)ccc2-c2cccs2)cc1C |  | inactive: 34% |
| Cc1ccsc1CN(C(=O)c1ccc([N+](=O)[O-])cc1)C1CCS(=O)(=O)C1 (stereo not given) | inconclusive: 18.5 µM [inhibitor, single point] |  |
| O=C(CSc1ncnc2scc(-c3ccccc3)c12)N1CCN(c2ccccc2F)CC1 | inconclusive: 18.5 µM [inhibitor, single point] |  |
| COC(=S)Nc1cccc(C(F)(F)F)c1 |  | inactive: -23.6% |
| Cc1ccc(OCc2nc3ccccc3[nH]2)cc1 |  | inactive: 21.6% |
| Cc1ccc(OC(=O)c2ccc(S(=O)(=O)N(C)C)cc2)c(-n2nc3ccccc3n2)c1 |  | inactive: 440% |
| O=[N+]([O-])c1ccc(CSc2nc3ccccc3o2)cc1 | inconclusive: 18.5 µM [inhibitor, single point] |  |
| CN1CCN(Cc2nc3ccccc3c(=O)n2Cc2nc(-c3ccccc3F)cs2)CC1 | inconclusive: 18.5 µM [inhibitor, single point] |  |
| CCCc1ccc(Oc2cc(Cl)nc(N)n2)cc1 | inconclusive: 11.7 µM [inhibitor, partial curve, poor fit] |  |
| CC(C)Cc1nc2ccccc2n1CCc1ccccc1 | active: 6.57 µM |  |
| CCn1nnnc1-c1ccc(OC)c(S(=O)(=O)Nc2ccc(C)c(C)c2)c1 | inconclusive: 18.5 µM [inhibitor, single point] |  |
| O=C(c1ccc(S(=O)(=O)N2CCCC2)cc1)N1CCN(c2ccccc2)CC1 | inconclusive: 0.415 µM [inhibitor, full curve, poor fit] |  |
| Cn1c2ccccc2c2n[nH]c(=O)nc21 | inconclusive: 13.1 µM [inhibitor, single point] |  |
| O=C(CNC(=O)c1ccc(Cl)cc1Cl)OCC(=O)N1CCN(c2ccccc2)CC1 |  | inactive: -1.9% |
| CCn1c(-c2ccccc2Cl)nn(CC(=O)Nc2cc(Cl)ccc2Cl)c1=S | active: 10.4 µM |  |
| COC(=O)c1ccn(CSc2c(F)c(F)cc(F)c2F)n1 | inconclusive: 9.28 µM [inhibitor, partial curve, poor fit] |  |

Part of the list above in order of SMILES length, rising.

| SMILES | Potency | activity change, negative = inhibition |
| --- | --- | --- |
| Cn1cc(Br)c(C(=O)n2cc(Br)cn2)n1 |  | inactive: -2.53% |
| Cc1ccc(-c2c[n+](Cc3ccc(Cl)cc3)c3n2CCC3)cc1 | active: 0.294 µM |  |
| CC1=C(C#N)C(=O)N(C2CCS(=O)(=O)C2)C(=O)/C1=C\c1ccc(C)o1 (stereo not given) |  | inactive: 45.8% |
| COC(=O)C1=C(C)N(Cc2ccccc2)C(=NCc2cc(OC)c(OC)c(OC)c2)N[C@H]1c1ccc(Br)cc1 |  | inactive: 29.1% |

A second format for part of the listing above:
O=C(Nc1nnc(C2CC2)s1)c1ccncc1
  activity change, negative = inhibition: inactive: 35%
O=[N+]([O-])c1ccc(CSc2nc3ccccc3o2)cc1
  Potency: inconclusive: 18.5 µM [inhibitor, single point]
